The source of these data is article PMC11538671.

Sequences of proteins named here, by UniProt entry; tags and fusion partners are left off.
UniProt Q9Y6Q9: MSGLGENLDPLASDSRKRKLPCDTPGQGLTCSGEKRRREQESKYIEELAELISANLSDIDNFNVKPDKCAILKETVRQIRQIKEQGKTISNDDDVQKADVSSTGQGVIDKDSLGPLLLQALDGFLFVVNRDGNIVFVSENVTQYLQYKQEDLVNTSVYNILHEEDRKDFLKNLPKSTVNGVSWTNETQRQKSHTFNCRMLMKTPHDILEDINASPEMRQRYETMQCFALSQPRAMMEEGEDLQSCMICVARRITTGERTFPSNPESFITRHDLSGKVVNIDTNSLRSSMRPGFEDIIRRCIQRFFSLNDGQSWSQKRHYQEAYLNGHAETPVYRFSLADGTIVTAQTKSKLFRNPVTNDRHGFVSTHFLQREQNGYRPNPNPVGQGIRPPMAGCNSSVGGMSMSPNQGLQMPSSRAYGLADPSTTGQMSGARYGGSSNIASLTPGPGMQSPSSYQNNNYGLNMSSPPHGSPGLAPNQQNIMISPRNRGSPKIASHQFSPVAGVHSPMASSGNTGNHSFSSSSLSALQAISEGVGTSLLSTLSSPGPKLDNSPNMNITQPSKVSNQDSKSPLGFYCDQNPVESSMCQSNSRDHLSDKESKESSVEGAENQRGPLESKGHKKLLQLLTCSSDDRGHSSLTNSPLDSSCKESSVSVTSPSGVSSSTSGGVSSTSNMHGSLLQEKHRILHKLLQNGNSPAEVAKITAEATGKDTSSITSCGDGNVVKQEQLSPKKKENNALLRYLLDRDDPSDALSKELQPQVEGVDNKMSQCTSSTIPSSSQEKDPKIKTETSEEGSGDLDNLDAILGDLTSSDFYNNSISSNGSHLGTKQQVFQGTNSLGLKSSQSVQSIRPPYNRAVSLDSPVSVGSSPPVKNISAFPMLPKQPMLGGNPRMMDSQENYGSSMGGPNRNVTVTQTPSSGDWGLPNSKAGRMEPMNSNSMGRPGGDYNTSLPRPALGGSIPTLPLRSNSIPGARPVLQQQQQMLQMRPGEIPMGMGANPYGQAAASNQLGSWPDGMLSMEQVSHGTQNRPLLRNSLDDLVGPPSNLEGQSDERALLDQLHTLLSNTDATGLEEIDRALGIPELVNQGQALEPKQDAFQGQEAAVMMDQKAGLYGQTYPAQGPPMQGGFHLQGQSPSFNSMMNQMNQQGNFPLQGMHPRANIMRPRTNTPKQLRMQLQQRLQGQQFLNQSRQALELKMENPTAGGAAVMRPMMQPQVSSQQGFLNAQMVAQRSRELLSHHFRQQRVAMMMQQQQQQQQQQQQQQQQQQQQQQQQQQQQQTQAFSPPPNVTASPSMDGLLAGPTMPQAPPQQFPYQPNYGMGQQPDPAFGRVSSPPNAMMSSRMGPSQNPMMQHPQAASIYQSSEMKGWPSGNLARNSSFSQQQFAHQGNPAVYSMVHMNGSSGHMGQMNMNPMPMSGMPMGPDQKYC
UniProt O95251: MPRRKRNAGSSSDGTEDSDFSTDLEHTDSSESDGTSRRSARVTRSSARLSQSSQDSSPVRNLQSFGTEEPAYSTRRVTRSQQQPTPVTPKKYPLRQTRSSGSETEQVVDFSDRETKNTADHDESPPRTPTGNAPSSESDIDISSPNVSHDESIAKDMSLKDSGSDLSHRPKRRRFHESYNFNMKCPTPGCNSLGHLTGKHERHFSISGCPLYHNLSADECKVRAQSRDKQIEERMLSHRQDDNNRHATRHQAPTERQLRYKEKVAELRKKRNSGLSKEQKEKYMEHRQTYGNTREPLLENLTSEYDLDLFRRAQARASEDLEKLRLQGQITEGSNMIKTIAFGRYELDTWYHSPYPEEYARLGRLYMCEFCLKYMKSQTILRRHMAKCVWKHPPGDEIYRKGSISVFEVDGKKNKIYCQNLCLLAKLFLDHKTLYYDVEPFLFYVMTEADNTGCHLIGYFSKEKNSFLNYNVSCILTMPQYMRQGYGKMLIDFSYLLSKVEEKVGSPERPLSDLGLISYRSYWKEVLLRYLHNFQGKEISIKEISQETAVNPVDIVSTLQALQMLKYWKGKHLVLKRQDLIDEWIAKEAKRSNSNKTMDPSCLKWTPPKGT

Results are given in words; binding and its absence hold for the method and conditions named. Some binding calls cover weakened binding; strength is not graded here.

This assay concerns the target T1, sine oculis homeobox 1 (SIX1) (human (endogenous in HepG2)) (UniProt Q15475).
T1 sequence: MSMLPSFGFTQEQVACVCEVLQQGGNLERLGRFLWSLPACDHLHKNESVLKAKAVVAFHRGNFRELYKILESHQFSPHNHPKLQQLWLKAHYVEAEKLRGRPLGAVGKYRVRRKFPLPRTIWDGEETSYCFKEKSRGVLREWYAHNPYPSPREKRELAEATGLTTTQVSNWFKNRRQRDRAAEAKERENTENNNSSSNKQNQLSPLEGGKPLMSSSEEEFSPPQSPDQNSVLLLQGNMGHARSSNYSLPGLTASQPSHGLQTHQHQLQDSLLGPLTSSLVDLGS
Briefly: Re-ChIP (sequential chromatin immunoprecipitation); cross-linked chromatin of HepG2 cells; complexes eluted from the primary immunoprecipitation with 10 mM DTT at 37 °C for 30 min, diluted 1:50 in 1% Triton X-100, 2 mM EDTA, 150 mM NaCl, 20 mM Tris/HCl pH 8.1, re-immunoprecipitated with the second antibodies; read-out real-time PCR of lipogenic gene promoters. In general terms: Real-time PCR tracks product formation cycle by cycle.

Consider “amplified in breast cancer 1 (AIB1) (from UniProt Q9Y6Q9 1-1424)”, for which the binding entry is listed as “binds”.
Regarding “lysine acetyltransferase 7 (HBO1/KAT7) (from UniProt O95251 1-611)”, the binding entry is listed as “binds”.
